These results are taken from publication PMC4496399.

Sequences of proteins named here, by UniProt entry; tags and fusion partners are left off. Residues count along the entry.
UniProt P04629, residues 33-796: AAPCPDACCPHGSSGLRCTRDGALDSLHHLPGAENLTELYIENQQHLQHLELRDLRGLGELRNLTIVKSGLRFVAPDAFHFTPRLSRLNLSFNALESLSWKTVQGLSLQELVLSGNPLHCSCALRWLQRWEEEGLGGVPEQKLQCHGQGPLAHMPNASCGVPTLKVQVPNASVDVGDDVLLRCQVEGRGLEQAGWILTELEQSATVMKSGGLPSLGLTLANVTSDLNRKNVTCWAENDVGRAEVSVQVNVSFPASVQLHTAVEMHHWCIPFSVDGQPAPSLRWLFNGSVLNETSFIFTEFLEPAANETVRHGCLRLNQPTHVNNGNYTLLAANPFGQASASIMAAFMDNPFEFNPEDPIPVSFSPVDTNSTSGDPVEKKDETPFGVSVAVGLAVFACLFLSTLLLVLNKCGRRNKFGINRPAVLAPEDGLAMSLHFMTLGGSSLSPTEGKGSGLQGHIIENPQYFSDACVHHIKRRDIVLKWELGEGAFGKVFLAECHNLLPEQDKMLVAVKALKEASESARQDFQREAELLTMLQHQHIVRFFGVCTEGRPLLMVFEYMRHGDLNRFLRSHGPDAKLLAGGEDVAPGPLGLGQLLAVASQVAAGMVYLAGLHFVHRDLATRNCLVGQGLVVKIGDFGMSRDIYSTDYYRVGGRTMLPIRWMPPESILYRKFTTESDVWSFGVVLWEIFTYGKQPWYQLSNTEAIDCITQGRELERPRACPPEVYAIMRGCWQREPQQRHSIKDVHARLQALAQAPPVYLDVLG
UniProt P16070, residues 21-742: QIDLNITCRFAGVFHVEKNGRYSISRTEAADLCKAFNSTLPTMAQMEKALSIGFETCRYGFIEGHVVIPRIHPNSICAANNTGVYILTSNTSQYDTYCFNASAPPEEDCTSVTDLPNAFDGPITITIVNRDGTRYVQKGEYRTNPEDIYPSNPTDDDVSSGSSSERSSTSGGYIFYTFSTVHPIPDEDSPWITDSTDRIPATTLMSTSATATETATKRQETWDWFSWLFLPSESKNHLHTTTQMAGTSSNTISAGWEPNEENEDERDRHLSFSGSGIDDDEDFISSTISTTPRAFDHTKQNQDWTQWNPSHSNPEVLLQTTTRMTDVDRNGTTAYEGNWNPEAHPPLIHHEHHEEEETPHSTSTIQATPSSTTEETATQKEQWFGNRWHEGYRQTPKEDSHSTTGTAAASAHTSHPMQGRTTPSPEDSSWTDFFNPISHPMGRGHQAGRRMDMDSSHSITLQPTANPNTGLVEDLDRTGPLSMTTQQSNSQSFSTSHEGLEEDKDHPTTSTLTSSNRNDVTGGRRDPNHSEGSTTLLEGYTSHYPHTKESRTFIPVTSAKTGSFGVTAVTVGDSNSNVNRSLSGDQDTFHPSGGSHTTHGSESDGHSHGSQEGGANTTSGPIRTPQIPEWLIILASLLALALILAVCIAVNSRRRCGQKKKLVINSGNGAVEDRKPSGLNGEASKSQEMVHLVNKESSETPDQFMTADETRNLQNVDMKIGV

Assay [1] deals with HA-TrkA (UniProt P04629). Briefly: proximity ligation; brightfield PLA on HA-TrkA MDA-MB-231 tumor xenografts (SCID mice, control group).
In assay [2] the target is HA-TrkA (UniProt P04629). Kind of assay: co-IP; IP from cleared MDA-MB-231 lysates (40 mM HEPES pH 7.5, 120 mM NaCl, 1% Triton X-100, 0.1% SDS) with anti-HA or anti-CD44 and protein-G agarose, 4°C; immunoblot; cells untreated or treated with NGF (16 nM) for 5 or 30 min.
In assay [3] the target is HA-TrkA (UniProt P04629). Briefly: proximity ligation; in situ PLA on paraformaldehyde-fixed cells without membrane permeabilization; rabbit anti-HA or rabbit anti-TrkA and mouse anti-CD44; cells untreated or treated with NGF (16 nM) for 5 or 30 min, with DMSO or K252a (10 nM) pre-incubation.
Assay [4] concerns the target TrkA (endogenous, PC3 prostate cancer cells) (human (endogenous in PC3)) (UniProt P04629). Described as above.
Assay [5] has as its target CD44 antigen (human (endogenous in MDA-MB-231 and PC3)) (UniProt P16070). Briefly: co-IP; IP from cleared MDA-MB-231 lysates (40 mM HEPES pH 7.5, 120 mM NaCl, 1% Triton X-100, 0.1% SDS) with anti-HA or anti-CD44 and protein-G agarose, 4°C; immunoblot; cells untreated or treated with NGF (16 nM) for 5 or 30 min. Background: A western blot detects proteins with antibodies after separation by electrophoresis.

No constants are given. Whether binding was seen depends on the method and setting. In cells and extracts the contact can be indirect. Some results given as binding are weak or reduced against the parent protein; the word gives no strength.

For “CD44 antigen (from UniProt P16070 21-742) (receptor)”, the binding result (with HA-TrkA [1]; in the assay with HA-TrkA [2]; with HA-TrkA [3]; in assay [4]) was “binds” each time.
For the substance “HA-TrkA (from UniProt P04629 33-796) (receptor)”, the binding result in assay [5] was “binds”.
